Among the targets are SPIB (UniProt Q01892); ETV5 (UniProt P41161); ELF4 (UniProt Q99607).
Common to all, as to test: DAPPL (digital affinity profiling via proximity ligation, sequencing)
Common to all, as to details: 10 mM Tris-HCl pH 7.5, 50 mM NaCl, 1 mM DTT, 4% glycerol, room temperature, 30 min; GST-TFs on glutathione beads, 16-mer random dsDNA library, 0.1% …; high values mean tight binding; double strand, one strand shown; scale: fold enrichment (6-mer frequency, TF over GST control)

Amino acid sequences for entries named in this document (tags omitted). A change or cut given only in a name is not applied to a line headed by its entry.
UniProt Q01892: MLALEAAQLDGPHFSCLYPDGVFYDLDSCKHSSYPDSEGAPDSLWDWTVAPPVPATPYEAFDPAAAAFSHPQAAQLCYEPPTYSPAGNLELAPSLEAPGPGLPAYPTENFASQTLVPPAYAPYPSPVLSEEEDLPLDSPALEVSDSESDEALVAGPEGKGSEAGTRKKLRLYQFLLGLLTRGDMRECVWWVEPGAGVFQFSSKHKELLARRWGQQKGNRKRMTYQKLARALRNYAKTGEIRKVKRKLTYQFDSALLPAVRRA
UniProt P41161: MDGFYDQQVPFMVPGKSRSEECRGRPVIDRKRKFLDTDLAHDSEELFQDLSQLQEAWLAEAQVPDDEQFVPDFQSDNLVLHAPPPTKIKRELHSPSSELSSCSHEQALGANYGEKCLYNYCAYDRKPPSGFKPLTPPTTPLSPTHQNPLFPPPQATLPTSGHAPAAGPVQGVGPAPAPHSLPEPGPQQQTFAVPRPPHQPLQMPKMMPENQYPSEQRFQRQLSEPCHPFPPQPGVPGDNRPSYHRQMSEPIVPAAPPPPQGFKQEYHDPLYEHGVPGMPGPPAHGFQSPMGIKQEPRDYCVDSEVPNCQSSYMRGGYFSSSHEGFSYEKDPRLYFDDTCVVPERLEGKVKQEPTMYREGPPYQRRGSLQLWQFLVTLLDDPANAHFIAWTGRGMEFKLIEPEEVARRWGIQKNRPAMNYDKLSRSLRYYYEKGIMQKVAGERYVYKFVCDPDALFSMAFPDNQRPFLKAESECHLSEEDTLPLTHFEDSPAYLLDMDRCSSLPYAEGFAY
UniProt Q99607: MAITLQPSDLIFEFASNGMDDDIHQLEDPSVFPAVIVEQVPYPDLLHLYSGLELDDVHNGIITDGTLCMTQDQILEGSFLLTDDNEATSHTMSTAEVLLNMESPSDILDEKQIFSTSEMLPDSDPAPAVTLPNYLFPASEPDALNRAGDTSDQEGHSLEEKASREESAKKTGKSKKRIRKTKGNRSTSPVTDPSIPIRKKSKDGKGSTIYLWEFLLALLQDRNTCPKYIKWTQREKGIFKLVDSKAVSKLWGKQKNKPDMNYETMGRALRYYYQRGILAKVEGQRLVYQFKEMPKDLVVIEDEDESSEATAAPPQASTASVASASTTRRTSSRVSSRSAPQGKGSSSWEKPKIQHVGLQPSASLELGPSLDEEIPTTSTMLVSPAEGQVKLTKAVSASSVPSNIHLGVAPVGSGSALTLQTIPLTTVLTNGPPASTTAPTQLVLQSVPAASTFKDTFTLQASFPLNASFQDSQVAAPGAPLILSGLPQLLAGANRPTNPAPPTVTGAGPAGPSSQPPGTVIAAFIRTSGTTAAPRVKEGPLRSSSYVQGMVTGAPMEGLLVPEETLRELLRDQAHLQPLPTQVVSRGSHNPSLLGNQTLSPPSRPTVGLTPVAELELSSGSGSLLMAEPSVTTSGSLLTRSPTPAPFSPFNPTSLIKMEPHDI

For the next assay, the target named is T1, FLI1 (UniProt Q01543).
T1 sequence: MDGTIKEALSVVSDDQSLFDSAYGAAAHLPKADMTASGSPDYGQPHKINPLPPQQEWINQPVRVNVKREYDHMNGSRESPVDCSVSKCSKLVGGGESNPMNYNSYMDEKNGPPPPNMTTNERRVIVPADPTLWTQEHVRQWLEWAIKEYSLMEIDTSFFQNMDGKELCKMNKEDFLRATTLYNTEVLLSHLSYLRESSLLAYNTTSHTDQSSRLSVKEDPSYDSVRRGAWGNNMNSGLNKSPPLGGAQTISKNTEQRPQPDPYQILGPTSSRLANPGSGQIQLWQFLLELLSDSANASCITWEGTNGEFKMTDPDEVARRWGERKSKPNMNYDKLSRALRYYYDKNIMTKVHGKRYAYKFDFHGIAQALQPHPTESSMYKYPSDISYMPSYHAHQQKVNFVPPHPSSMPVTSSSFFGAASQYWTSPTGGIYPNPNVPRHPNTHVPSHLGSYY

Another assay concerns the target T2, EHF (UniProt Q9NZC4).
T2 sequence: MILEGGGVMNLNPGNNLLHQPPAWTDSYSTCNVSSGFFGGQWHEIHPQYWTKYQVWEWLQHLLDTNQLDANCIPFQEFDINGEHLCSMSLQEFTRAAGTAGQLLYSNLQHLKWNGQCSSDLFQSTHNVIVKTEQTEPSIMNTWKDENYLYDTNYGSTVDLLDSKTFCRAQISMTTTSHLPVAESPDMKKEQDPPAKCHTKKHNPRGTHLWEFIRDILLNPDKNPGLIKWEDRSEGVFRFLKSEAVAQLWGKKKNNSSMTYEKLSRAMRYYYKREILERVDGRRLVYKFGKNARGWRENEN

A further assay concerns the target T3, ETV2 (UniProt O00321).
T3 sequence: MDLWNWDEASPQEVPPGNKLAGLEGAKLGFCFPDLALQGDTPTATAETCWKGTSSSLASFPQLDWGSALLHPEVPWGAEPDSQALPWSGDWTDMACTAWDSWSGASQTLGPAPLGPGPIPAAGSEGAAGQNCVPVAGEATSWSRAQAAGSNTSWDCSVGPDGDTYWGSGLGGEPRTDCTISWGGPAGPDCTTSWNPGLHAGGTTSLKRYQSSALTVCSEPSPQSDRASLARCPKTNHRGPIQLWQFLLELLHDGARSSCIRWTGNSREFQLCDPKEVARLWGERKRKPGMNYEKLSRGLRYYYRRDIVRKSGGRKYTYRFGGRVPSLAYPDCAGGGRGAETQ

The target of the next assay is T4, ETV3L (UniProt Q6ZN32).
T4 sequence: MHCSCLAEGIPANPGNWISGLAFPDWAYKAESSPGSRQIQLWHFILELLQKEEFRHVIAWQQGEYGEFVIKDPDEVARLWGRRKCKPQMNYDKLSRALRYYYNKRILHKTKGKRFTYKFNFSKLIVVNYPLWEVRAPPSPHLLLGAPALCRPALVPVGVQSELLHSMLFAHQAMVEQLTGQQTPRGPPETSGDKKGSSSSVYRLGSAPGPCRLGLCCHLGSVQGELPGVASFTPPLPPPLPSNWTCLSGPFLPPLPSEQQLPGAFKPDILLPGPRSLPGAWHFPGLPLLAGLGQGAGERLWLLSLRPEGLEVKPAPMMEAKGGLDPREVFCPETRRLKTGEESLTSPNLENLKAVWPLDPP

Only a part is listed here, and it is no random draw. At the low end of the ranking, values are background and their order means little.

On to CGTCGT, for which the binding signal with FLI1 was determined as 0.895; in the assay with EHF it was 0.898; in the assay with SPIB it was 0.82; with ETV5, 0.842; with ELF4, 0.822; with ETV2, 0.856. For the same sequence, in the assay with ETV3L, the binding signal is 0.918.
On to TGGGTC, for which the binding signal came to 0.696 with FLI1; 0.667 with EHF; 0.643 with SPIB; 0.635 in the assay with ETV5; 0.666 with ELF4; 0.617 with ETV2. Also, the binding signal with ETV3L came to 0.692.
Regarding GGGTAA, the binding signal with FLI1 came out at 0.871; with EHF, 0.895; with SPIB it was 0.822; in the assay with ETV5, 0.874; with ELF4, 0.891; in the assay with ETV2 it was 0.8. Also, in the assay with ETV3L, the binding signal came out at 0.836.
For the sequence CGAGGA, the binding signal turned out to be 0.626 with FLI1; 0.669 with EHF; 0.6 with SPIB; 0.657 with ETV5; 0.637 with ELF4; 0.573 with ETV2. This sequence showed a binding signal with ETV3L of 0.626.
As for GCGCAT, the binding signal amounted to 0.842 with FLI1; 0.881 with EHF; 0.926 in the assay with SPIB; 0.888 with ETV5; 0.851 with ELF4; 0.702 with ETV2. Further, in the assay with ETV3L, the binding signal was determined as 0.865.
With TTCGGA, the binding signal with FLI1 was 0.735; with EHF, 0.708; with SPIB, 0.728; with ETV5, 0.794; with ELF4, 0.7; with ETV2, 0.712. The sequence also registered a binding signal in the assay with ETV3L of 0.791.
Regarding AGCGGT, the binding signal in the assay with FLI1 was 0.748; with EHF, 0.737; with SPIB, 0.722; with ETV5 it was 0.763; with ELF4 it was 0.744; with ETV2 it was 0.818. In the assay with ETV3L, this sequence showed a binding signal of 0.747.
Turning to GCGGTC, the binding signal in the assay with FLI1 came out at 0.631; with EHF it was 0.719; in the assay with SPIB, 0.672; with ETV5, 0.633; with ELF4 it was 0.676; with ETV2 it was 0.715. In addition, the binding signal in the assay with ETV3L was found to be 0.679.
In the case of CGGGGA, the binding signal in the assay with FLI1 was 0.424; in the assay with EHF, 0.459; with SPIB it was 0.441; in the assay with ETV5, 0.413; in the assay with ELF4, 0.42; with ETV2, 0.463. In the assay with ETV3L, this sequence gave a binding signal of 0.39.
CGTTGA: the binding signal with FLI1 is 0.903; with EHF it was 0.782; in the assay with SPIB, 0.786; with ETV5, 0.782; in the assay with ELF4, 0.867; in the assay with ETV2, 0.779. Moreover, the binding signal in the assay with ETV3L was 0.806.
As for TAGCCA, the binding signal came out at 0.823 with FLI1; 0.83 in the assay with EHF; 0.775 with SPIB; 0.737 in the assay with ETV5; 0.882 with ELF4; 0.929 with ETV2. Besides, in the assay with ETV3L, the binding signal was 0.798.
Regarding GTAAAG, the binding signal with FLI1 turned out to be 0.955; with EHF, 0.908; with SPIB, 0.903; in the assay with ETV5, 0.952; in the assay with ELF4, 0.844; in the assay with ETV2, 0.955. Moreover, the binding signal with ETV3L amounted to 0.897.
In the case of GCGTGC, the binding signal came to 0.802 in the assay with FLI1; 0.739 in the assay with EHF; 0.821 with SPIB; 0.809 in the assay with ETV5; 0.743 in the assay with ELF4; 0.837 with ETV2. This sequence also returned a binding signal with ETV3L of 0.728.
With GTGACG, the binding signal in the assay with FLI1 came to 0.673; in the assay with EHF, 0.691; in the assay with SPIB, 0.706; in the assay with ETV5, 0.756; with ELF4 it was 0.678; with ETV2, 0.735. Further, the binding signal in the assay with ETV3L was 0.701.
As for GCACCG, the binding signal in the assay with FLI1 came to 0.686; in the assay with EHF, 0.777; in the assay with SPIB it was 0.678; in the assay with ETV5, 0.781; with ELF4, 0.706; with ETV2 it was 0.715. In the assay with ETV3L, the binding signal was 0.793.
Take GCCGGT: the binding signal with FLI1 worked out at 0.668; with EHF, 0.679; with SPIB, 0.648; with ETV5, 0.664; with ELF4, 0.633; with ETV2, 0.652. Besides, the binding signal with ETV3L turned out to be 0.604.
As for CCGGGG, the binding signal amounted to 0.754 in the assay with FLI1; 0.746 in the assay with EHF; 0.783 with SPIB; 0.814 with ETV5; 0.723 with ELF4; 0.731 with ETV2. For the same sequence, in the assay with ETV3L, the binding signal worked out at 0.763.
For GTGCGG, the binding signal with FLI1 was found to be 0.718; with EHF it was 0.68; with SPIB, 0.604; in the assay with ETV5, 0.715; in the assay with ELF4, 0.673; in the assay with ETV2 it was 0.672. Moreover, the binding signal with ETV3L was 0.681.
Consider GAACGG, for which the binding signal turned out to be 0.583 with FLI1; 0.591 with EHF; 0.609 in the assay with SPIB; 0.621 in the assay with ETV5; 0.628 in the assay with ELF4; 0.758 in the assay with ETV2. The sequence also showed a binding signal in the assay with ETV3L of 0.652.
As for CAGCAA, the binding signal with FLI1 worked out at 0.945; with EHF it was 0.968; in the assay with SPIB, 0.954; with ETV5, 0.962; in the assay with ELF4 it was 0.952; with ETV2, 0.981. In the assay with ETV3L, the binding signal is 0.916.
In the case of GCTGTC, the binding signal came out at 0.9 with FLI1; 1 with EHF; 0.875 with SPIB; 0.929 with ETV5; 0.959 with ELF4; 0.856 in the assay with ETV2. The binding signal in the assay with ETV3L is 0.865.
Turning to GTCGGA, the binding signal with FLI1 worked out at 0.166; with EHF it was 0.184; with SPIB, 0.17; with ETV5, 0.165; with ELF4, 0.154; with ETV2, 0.154. In addition, the binding signal with ETV3L is 0.173.
With GGAACC, the binding signal is 0.827 with FLI1; 0.885 with EHF; 0.86 with SPIB; 0.872 with ETV5; 0.807 with ELF4; 0.901 in the assay with ETV2. The same sequence displayed a binding signal in the assay with ETV3L of 0.824.
For the sequence AGGATC, the binding signal came out at 0.893 with FLI1; 0.866 with EHF; 0.944 with SPIB; 0.892 in the assay with ETV5; 0.852 with ELF4; 0.938 in the assay with ETV2. In the assay with ETV3L, this sequence yielded a binding signal of 0.993.
For AGTAAG, the binding signal with FLI1 amounted to 0.79; with EHF, 0.778; with SPIB it was 0.757; with ETV5, 0.736; with ELF4 it was 0.747; with ETV2, 0.787. In the assay with ETV3L, this sequence showed a binding signal of 0.776.
For CGGGCA, the binding signal in the assay with FLI1 came out at 0.71; in the assay with EHF, 0.698; with SPIB it was 0.813; with ETV5, 0.733; with ELF4, 0.74; with ETV2, 0.763. The same sequence showed a binding signal in the assay with ETV3L of 0.646.
As for TACAGT, the binding signal in the assay with FLI1 turned out to be 0.928; with EHF, 0.882; with SPIB it was 0.906; with ETV5 it was 0.871; in the assay with ELF4 it was 0.922; with ETV2, 0.819. In the assay with ETV3L, this sequence had a binding signal of 0.894.
As to CACAGG, the binding signal with FLI1 worked out at 0.828; in the assay with EHF it was 0.88; with SPIB, 0.994; in the assay with ETV5 it was 0.888; in the assay with ELF4, 0.933; with ETV2 it was 0.964. In the assay with ETV3L, this sequence showed a binding signal of 0.93.
CCGTGC: the binding signal with FLI1 was 0.55; with EHF, 0.554; in the assay with SPIB, 0.579; with ETV5, 0.646; with ELF4, 0.588; with ETV2 it was 0.607. Besides, in the assay with ETV3L, the binding signal was found to be 0.649.
Turning to GAGCGG, the binding signal with FLI1 was determined as 0.528; in the assay with EHF it was 0.508; with SPIB, 0.506; with ETV5 it was 0.537; with ELF4 it was 0.513; with ETV2 it was 0.534. Moreover, the binding signal with ETV3L turned out to be 0.505.

Values taken from PMC7862700.
